Screen size: about 1,900 compounds; about 15 (0.8%) were called active.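 How the source made its calls: active means every replicate shows at least 50% inhibition; inconclusive means mean inhibition at least 50% but some replicate below; inactive means the rest.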 The list shows a part of the results.

By UniProt entry, the sequences of proteins in these tests, tags left out. Where a name states a change or a piece, a line headed by the entry shows the natural chain unless it says otherwise.
UniProt P43351: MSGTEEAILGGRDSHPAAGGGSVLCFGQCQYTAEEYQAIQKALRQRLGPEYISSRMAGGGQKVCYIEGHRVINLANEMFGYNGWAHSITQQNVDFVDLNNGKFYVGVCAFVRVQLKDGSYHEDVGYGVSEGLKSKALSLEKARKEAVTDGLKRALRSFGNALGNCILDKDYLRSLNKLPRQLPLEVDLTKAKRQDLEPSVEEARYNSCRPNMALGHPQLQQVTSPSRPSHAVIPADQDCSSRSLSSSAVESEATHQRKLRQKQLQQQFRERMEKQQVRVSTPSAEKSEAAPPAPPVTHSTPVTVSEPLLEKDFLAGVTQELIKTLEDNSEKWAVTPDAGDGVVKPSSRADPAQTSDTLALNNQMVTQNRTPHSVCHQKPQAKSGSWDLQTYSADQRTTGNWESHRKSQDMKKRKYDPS

This assay has as its target DNA repair protein RAD52 homolog (Homo sapiens) (UniProt P43351). Description: RAD52 ssDNA annealing inhibitors, primary screen, biochemical, FRET, single point (AID 651660).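 Further: 0% = median of neutral control wells and 100% = median of positive control wells.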 The following applies: Recombinant RAD52 ssDNA annealing, FRET fluorescence, 30 min; at 18.7 µM; active compounds read high.
Take `CSCCC(NC(=O)/C(=C/c1ccc2c(c1)OCO2)NC(=O)c1cccc([N+](=O)[O-])c1)C(=O)O` (stereo not drawn): the inhibition (commonly the drop in the measured response relative to a control, in per cent) is inactive: -0.767%.
Turning to `CCOC(=O)C1C(=O)CC(C)(O)C(C(=O)OCC)C1/C=C/c1ccccc1` (stereo not drawn), the inhibition is inactive: -0.446%.
The figure for `CCc1cn([C@H]2C[C@H](O)[C@@H](CO)O2)c(=O)[nH]c1=O` is inactive: -4.5%; for `CC(C)c1ccc(NC(=O)CNS(=O)(=O)c2ccc(F)cc2)cc1` it is inactive: 3.93%; for `Oc1ccccc1OCCOc1ccccc1OCCOc1ccccc1O` it is inactive: 20%.
Take `CCOCC(=O)Nc1nc2ccccc2s1`: the inhibition was inactive: 1.68%.
For `O=c1[nH]c(=O)n(C2CCCO2)cc1F` (stereo not drawn), the inhibition was inactive: -3.21%.
`CC(NCCC(c1ccccc1)c1ccccc1)c1ccccc1` (stereo not drawn): the inhibition was inactive: 15.4%.
Next, `CC(C)c1ccccc1OCCNC(=S)NC(=O)c1cccnc1`: inactive: -11.8%.
The figure for `COc1c2occc2c(OC)c2c(=O)cc(C)oc12` is inactive: 8.21%; for `CSc1cccc(NC(=O)/C=C/c2ccccc2)c1` it is inactive: 5.27%; for `COc1ccc(CCN(C)CCCC(C#N)(c2cc(OC)c(OC)c(OC)c2)C(C)C)cc1OC` (stereo not drawn) it is inactive: -3.47%.
As to `CC(C)(C)C(=O)N1CCCC1C(=O)O` (stereo not drawn), the inhibition is inactive: -3.81%.
Next, `COc1ccc(-c2coc3cc(OC(=O)N4CCOCC4)ccc3c2=O)cc1`: inactive: -0.331%; `O=C(O)C(O)c1ccccc1` (stereo not drawn): inactive: -6.03%.
Take `CC1(C)CC(NC(=O)C23CCC(C)(C(=O)C2=O)C3(C)C)CC(C)(C)N1` (stereo not drawn): the inhibition is inactive: -9.12%.
The figure for `Nc1cccc2c1nnn2C1OC(CO)C(O)C(O)C1O` (stereo not drawn) is inactive: 3.85%.
Next, `Cc1ccccc1C(=O)Oc1ccc(Sc2ccc(O)cc2)cc1`: inactive: 7.65%; `CC(C)CC(=O)OC1C(N2CCOCC2)c2c(ccc(/C=C/C(=O)N3CCOCC3)c2O)OC1(C)C` (stereo not drawn): inactive: -11.1%.
Turning to `CCN(CC)C1=C(Cl)C(=O)C(Cl)C12OCCO2` (stereo not drawn), the inhibition was inactive: -5.84%.
Consider `O=C(NCCN1CCCCC1)c1c(O)c2ccccc2[nH]c1=O`, for which the inhibition is inactive: 10.9%.
In the case of `Cc1ccc(C(=O)NC(=S)NCCCN2CCOCC2)cc1`, the inhibition was inactive: -5.32%.
The figure for `Cc1ccc(N2CCN(C(=S)c3ccc(-c4cccc([N+](=O)[O-])c4)o3)CC2)cc1` is inactive: 8.61%; for `COc1ccc(-c2cc(=Nc3ccc(C)cc3)c3ccccc3o2)cc1` it is inactive: 2.9%; for `COc1cc(C2CC(=O)NC3=C2C(=O)CC(C)(C)C3)ccc1O` (stereo not drawn) it is inactive: 1.28%.
Next, `N#C/C(=C/c1ccccc1)C(=O)NCc1ccccc1`: inactive: 0.216%; `O=C(CCC1CCCN(C(=O)c2ccsc2)C1)NCc1ccc(F)c(F)c1` (stereo not drawn): inactive: 12.5%.
Consider `Cc1cccc(C(=O)c2cccc(C)c2)c1`, for which the inhibition is inactive: -3.42%.
`Cc1cnc(NC(=O)C2=C(O)c3ccccc3S(=O)(=O)N2C)s1`: the inhibition was inactive: 1.11%.
Next, `O=C(O)CCCc1ccccc1`: inactive: -13.2%.
Next, `CC1(C)O[C@@H]2C[C@H]3[C@@H]4CCC5=CC(=O)C=C[C@]5(C)[C@@]4(F)[C@@H](O)C[C@]3(C)[C@]2(C(=O)CO)O1`: inactive: -0.958%.
The figure for `COc1ccc(/C=C\c2nc(=O)c3ccccc3o2)cc1` is inactive: -13.4%; for `O=C(NCCc1c[nH]c2ccccc12)c1cccnc1` it is inactive: -5.07%.
On to `CCCOc1ccc(-c2cc(C(=O)NCC3CCCO3)c3ccccc3n2)cc1` (stereo not drawn), for which the inhibition is inactive: 1.26%.
On to `CC1CC(OC(=O)C(O)c2ccccc2)CC(C)(C)N1C` (stereo not drawn), for which the inhibition is inactive: -5.83%.
Next, `CC(=O)OCC(OC(C)=O)C(OC(C)=O)C(OC(C)=O)C(=O)Nc1cccc(C)c1` (stereo not drawn): inactive: -6.47%.
The figure for `Cc1nnc(NS(=O)(=O)c2ccc(N)cc2)s1` is inactive: 5.04%; for `CCN1CCN(c2cc3c(cc2F)c(=O)c(C(=O)O)cn3C2CC2)CC1` it is inactive: 12.1%.
The figure for `CC(C)N1C(=O)/C(=C\c2nc3ccccc3c(=O)[nH]2)c2ccccc21` is inactive: 7.7%; for `O=C1ON=C(c2ccc(Cl)cc2)/C1=C/c1ccc(O)cc1` it is inactive: -74.5%.
`Cc1ccc(Cl)c(Nc2ccccc2C(=O)O)c1Cl`: the inhibition was inactive: -11.1%.
Next, `CC(C(=O)O)c1ccc(N2Cc3ccccc3C2=O)cc1` (stereo not drawn): inactive: -5.86%; `COc1cccc(=O)c2c(C)n(CC(=O)c3ccccc3)c(C)c12`: inactive: -138%; `CCn1nc(C(=O)O)c(=O)c2cc3c(cc21)OCO3`: inactive: -1.73%.
The figure for `CCCN1CCC(NC(=O)Nc2ccc(Br)cc2)CC1` is inactive: 3.41%; for `Fc1ccc(-n2cc(CNCCc3ccccn3)c(-c3ccccc3Cl)n2)cc1` it is inactive: 16.8%; for `CC(=O)Nc1ccc(S(=O)(=O)c2ccc(N)cc2)cc1` it is inactive: -10.6%.
The figure for `CCS(=O)(=O)Nc1cc(OC)c(OC)cc1Cc1nccc2cc(OC)c(OC)cc12` is inactive: 8.07%.
`CN(C)c1ccc(CNCCC(Cc2ccccc2)c2ccco2)cc1` (stereo not drawn): the inhibition was inactive: 44%.
The figure for `CCC(C(=O)OCCN(CC)CC)c1ccccc1` (stereo not drawn) is inactive: -8.09%; for `COc1ccc(N2C(=O)[C@@H]3Cc4ccccc4CN3C2=O)cc1` it is inactive: -7.83%.
The figure for `CC(C)(C)n1c(=O)[nH]c2c(c1=O)CCC2` is inactive: -8.49%; for `O=C1CC2(CCCC2)CC(=O)N1CCCCN1CCN(c2ncccn2)CC1` it is inactive: -1.6%.
As for `CC[C@H]1OC(=O)[C@H](C)[C@@H](O[C@H]2C[C@@](C)(OC)[C@@H](O)[C@H](C)O2)[C@H](C)[C@@H](O[C@@H]2O[C@H](C)C[C@H](N(C)C)[C@H]2O)[C@](C)(O)C[C@@H](C)[C@@H]2N[C@@H](COCCOC)O[C@H]([C@H]2C)[C@]1(C)O`, the inhibition is inactive: 14.9%.
The figure for `COc1ccc2c(CC(=O)NCC3CCC(C(=O)O)CC3)cc(=O)oc2c1` (stereo not drawn) is inactive: -4.32%; for `CCOc1ccccc1OCCOc1ccc(F)cc1` it is inactive: 5.05%; for `O=C1C(Cc2c[nH]c3ccccc23)NC(=S)N1Cc1ccccc1` (stereo not drawn) it is inactive: -79.2%.
The figure for `O=C(COc1ccccc1)Nc1ccc2c(c1)C(=O)N(CC1CCCO1)C2=O` (stereo not drawn) is inactive: -9.17%; for `COc1cc(Cl)cc2c1Sc1ccccc1/C2=C/CCN(C)C` it is inactive: 45.5%.
The figure for `CCOC(=O)c1cccc(C(=O)OCC)n1` is inactive: -3.84%; for `O=C(Cc1ccccc1[N+](=O)[O-])NCCCN1CCOCC1` it is inactive: 0.272%.
For the compound `COc1ccc(C2CC(c3c(O)cc(C)oc3=O)=NCCS2)c(OC)c1` (stereo not drawn), the inhibition was inactive: -81.1%.
As for `CN1[C@@H]2CC[C@H]1CC(OC(=O)C(CO)c1ccccc1)C2` (stereo partly drawn), the inhibition was inactive: -0.351%.
Next, `COc1ccc(CNCCC2(C(C)C)CCOC(C)(C)C2)cc1` (stereo not drawn): inactive: 1.07%.
Next, `CC1Cc2ccccc2N1NC(=O)c1ccc(Cl)c(S(N)(=O)=O)c1` (stereo not drawn): inactive: 0.865%.
Next, `CC(C)(C)[C@]1(O)CCN2C[C@H]3c4ccccc4CCc4cccc(c43)[C@@H]2C1`: inactive: 3.15%; `Cn1c2[n+](c3ccc(Cl)cc3c1=O)Cc1ccccc1-2`: inactive: 7.93%; `O=C(NCCC(c1ccccc1)c1ccco1)c1cccs1` (stereo not drawn): inactive: -5.2%.
Take `CC(=O)Oc1cc2oc(=O)cc(C)c2cc1OC(C)=O`: the inhibition is inactive: 0.129%.
Take `CC(=O)O[C@H]1C(=O)[C@@]2(C)[C@H]([C@H](OC(=O)c3ccccc3)[C@]3(O)C[C@H](OC(=O)[C@H](O)C(NC(=O)c4ccccc4)c4ccccc4)C(C)=C1C3(C)C)[C@]1(OC(C)=O)CO[C@@H]1C[C@@H]2O` (stereo partly drawn): the inhibition is inactive: 5.9%.
On to `Cc1ccc(C(=O)Nc2ccccc2C(=O)NC(C(=O)O)C(C)C)cc1` (stereo not drawn), for which the inhibition was inactive: -13.2%.
The figure for `O=C(CCCn1c(=O)oc2ccccc21)N1CCN(c2ccc(F)cc2)CC1` is inactive: -3.01%; for `CCn1c(SCC(=O)c2ccccc2)nc2ccccc2c1=O` it is inactive: 3.94%; for `COc1ccc(C(=O)C2CCCCC2=O)cc1` (stereo not drawn) it is inactive: -11.5%.
For the compound `Cc1ccc(-n2cc(CNCCN3CCOC3=O)c(-c3ccc(F)cc3)n2)cc1`, the inhibition was inactive: 7.33%.
For `Nc1ccc(S(N)(=O)=O)cc1N`, the inhibition is inactive: -488%.
Turning to `COc1ccc(C2C(=O)c3ccccc3C2=O)cc1`, the inhibition is inactive: -10.6%.
In the case of `Cc1cccc(C)c1NC(=O)C1CCCCN1C` (stereo not drawn), the inhibition is inactive: -1.92%.
For `CCOC(=O)c1c(C)oc2cc(Br)c(OC(C)C(=O)OCC)cc12` (stereo not drawn), the inhibition is inactive: 7%.
Next, `CN1C(C(=O)Nc2ccccn2)=C(O)c2sccc2S1(=O)=O`: inactive: -3.88%; `Cc1ncc([N+](=O)[O-])n1CC(O)CCl` (stereo not drawn): inactive: 0.153%.
Regarding `CCOC(=O)C1=C(N)Oc2c(oc(CO)cc2=O)C1c1ccc(F)c(F)c1` (stereo not drawn), the inhibition was inactive: -14.2%.
With `C[C@]12CC[C@H]3C(=CCc4cc(O)ccc43)[C@@H]1CCC2=O`, the inhibition was inactive: 5.47%.
In the case of `CCc1ccc2oc(=O)cc(CN3CCC(C)CC3)c2c1`, the inhibition was inactive: -8.34%.
The figure for `CCOC(=O)C1C2C=CC3(CN(c4ccc(Cl)c(F)c4)C(=O)C13)O2` (stereo not drawn) is inactive: -3.23%.
Next, `COc1ccc(CNCCC(c2ccc(F)cc2)c2ccc(OC(C)C)cc2)cc1OC` (stereo not drawn): active: 57.6%; `CC(C)COCC1CC2(CC(C)(c3csc(N)n3)OC2=O)C(=O)O1` (stereo not drawn): inactive: -11.3%; `COc1c(C)cc(C(=O)C2CCCN(Cc3ccc(Oc4ncccn4)cc3)C2)cc1C` (stereo not drawn): inactive: -5.97%.
With `Cn1c(=O)c2[nH]cnc2n(C)c1=O`, the inhibition is inactive: -3.99%.
The figure for `C#C[C@]1(O)CC[C@H]2[C@@H]3CCc4cc(OC5CCCC5)ccc4[C@H]3CC[C@@]21C` is inactive: -10.8%; for `Cc1ccnc2c1NC(=O)c1cccnc1N2C1CC1` it is inactive: 48.7%.
As for `CN(C)CCC=C1c2ccccc2CCc2ccccc21`, the inhibition was inactive: -4.65%.
The figure for `COc1ccc(-c2c[n+](CC(=O)OC3CC(C)CCC3C(C)C)c3n2CCC3)cc1` (stereo not drawn) is inactive: 33.7%.
